According to paper PMC10223935:
Results are given in words; binding and its absence hold for the method and conditions named. In cells and extracts the contact can be indirect. Some entries that bind do so weakly or less than the wild type.

Amino acid sequences for entries named in this document (tags omitted).
UniProt P10415: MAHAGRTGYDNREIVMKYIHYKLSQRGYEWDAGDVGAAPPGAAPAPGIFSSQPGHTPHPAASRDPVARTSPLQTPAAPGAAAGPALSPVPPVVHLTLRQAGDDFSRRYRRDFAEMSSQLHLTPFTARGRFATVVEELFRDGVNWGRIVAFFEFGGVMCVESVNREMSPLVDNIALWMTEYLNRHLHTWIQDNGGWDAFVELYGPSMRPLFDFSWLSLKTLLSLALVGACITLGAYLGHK
UniProt Q14457: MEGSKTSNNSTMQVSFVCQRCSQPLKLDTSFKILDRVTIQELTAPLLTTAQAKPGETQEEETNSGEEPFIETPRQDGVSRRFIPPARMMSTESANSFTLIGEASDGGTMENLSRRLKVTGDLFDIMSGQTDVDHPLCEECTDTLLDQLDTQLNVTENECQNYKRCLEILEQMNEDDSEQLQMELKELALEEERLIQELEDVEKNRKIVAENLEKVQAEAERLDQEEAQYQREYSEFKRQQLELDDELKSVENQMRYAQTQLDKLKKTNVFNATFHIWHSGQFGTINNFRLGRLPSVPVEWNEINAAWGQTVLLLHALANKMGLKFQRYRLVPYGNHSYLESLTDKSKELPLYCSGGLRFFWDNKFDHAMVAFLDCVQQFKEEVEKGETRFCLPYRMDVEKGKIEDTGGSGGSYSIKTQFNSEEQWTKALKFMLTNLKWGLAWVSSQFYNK

Molecular target: Bcl-2 (human (endogenous in HEK293T)) (UniProt P10415)
Assay: co-IP; Beclin 1 in complex with Bcl-2 in HEK293T cells, with or without S1 or S1g-2 (Additional file 1: Fig. S3B)

- binding: binds
Substance: Beclin 1 (from UniProt Q14457 1-450)
